Assay: LLOQ determination by serial dilutions of AQ mix spiked into blank urine/plasma (LC-MS/MS)
Set-up: species or system human
Conditions: for Calculated LLOQ in plasma: spiked blank plasma; for Calculated LLOQ in urine: spiked blank urine

| Compound | Calculated LLOQ in plasma | Calculated LLOQ in urine |
| --- | --- | --- |
| CCCCCCCCCc1[nH]c2ccccc2c(=O)c1O [C9-PQS, 2-nonyl-3-hydroxy-4(1H)-quinolone] | 100 pmol/L | 50 pmol/L |
| CCCCCCCc1cc(=O)c2ccccc2[nH]1 [HHQ, 2-heptyl-4(1H)-quinolone] | 10 pmol/L | 20 pmol/L |

From patent US10139406B2, “Alkyl quinolones as biomarkers of pseudomonas aeruginosa infection and uses thereof” (priority 2013, dated 2018)
